No constants are given. Whether binding was seen depends on the method and setting. Binding can be weak; no strength is given. Sequences can lack the tags named with a protein. For some assays here: In cells and extracts the contact can be indirect.

In test [1] the target is T1, TUT3 (yeast two-hybrid fusion) (Trypanosoma brucei) (UniProt Q6B9Y8).
T1 sequence: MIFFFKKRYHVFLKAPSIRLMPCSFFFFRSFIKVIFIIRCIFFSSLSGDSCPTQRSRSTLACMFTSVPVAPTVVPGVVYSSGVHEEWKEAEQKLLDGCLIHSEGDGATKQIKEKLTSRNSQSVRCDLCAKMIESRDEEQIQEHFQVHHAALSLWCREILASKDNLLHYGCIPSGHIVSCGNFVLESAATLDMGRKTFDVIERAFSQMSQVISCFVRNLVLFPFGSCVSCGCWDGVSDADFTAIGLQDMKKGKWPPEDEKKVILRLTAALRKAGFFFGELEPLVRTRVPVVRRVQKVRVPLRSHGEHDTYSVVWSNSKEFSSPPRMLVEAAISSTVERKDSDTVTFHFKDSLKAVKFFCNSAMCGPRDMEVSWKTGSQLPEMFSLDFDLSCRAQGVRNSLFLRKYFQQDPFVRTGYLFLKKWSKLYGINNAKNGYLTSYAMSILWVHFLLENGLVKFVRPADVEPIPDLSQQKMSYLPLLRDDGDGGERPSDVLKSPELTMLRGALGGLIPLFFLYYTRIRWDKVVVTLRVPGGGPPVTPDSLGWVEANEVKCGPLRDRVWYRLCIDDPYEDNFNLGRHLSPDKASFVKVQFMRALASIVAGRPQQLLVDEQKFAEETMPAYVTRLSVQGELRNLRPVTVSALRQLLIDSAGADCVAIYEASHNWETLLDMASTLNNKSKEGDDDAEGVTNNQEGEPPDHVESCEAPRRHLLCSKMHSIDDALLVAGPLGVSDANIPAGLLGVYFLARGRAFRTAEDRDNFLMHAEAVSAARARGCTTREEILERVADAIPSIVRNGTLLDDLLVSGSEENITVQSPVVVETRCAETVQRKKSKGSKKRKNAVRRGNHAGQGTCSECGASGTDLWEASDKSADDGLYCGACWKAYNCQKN
Nature of the test: two-hybrid.

Test [2] deals with T2, TUT3-myc (Trypanosoma brucei) (UniProt Q6B9Y8).
T2 sequence: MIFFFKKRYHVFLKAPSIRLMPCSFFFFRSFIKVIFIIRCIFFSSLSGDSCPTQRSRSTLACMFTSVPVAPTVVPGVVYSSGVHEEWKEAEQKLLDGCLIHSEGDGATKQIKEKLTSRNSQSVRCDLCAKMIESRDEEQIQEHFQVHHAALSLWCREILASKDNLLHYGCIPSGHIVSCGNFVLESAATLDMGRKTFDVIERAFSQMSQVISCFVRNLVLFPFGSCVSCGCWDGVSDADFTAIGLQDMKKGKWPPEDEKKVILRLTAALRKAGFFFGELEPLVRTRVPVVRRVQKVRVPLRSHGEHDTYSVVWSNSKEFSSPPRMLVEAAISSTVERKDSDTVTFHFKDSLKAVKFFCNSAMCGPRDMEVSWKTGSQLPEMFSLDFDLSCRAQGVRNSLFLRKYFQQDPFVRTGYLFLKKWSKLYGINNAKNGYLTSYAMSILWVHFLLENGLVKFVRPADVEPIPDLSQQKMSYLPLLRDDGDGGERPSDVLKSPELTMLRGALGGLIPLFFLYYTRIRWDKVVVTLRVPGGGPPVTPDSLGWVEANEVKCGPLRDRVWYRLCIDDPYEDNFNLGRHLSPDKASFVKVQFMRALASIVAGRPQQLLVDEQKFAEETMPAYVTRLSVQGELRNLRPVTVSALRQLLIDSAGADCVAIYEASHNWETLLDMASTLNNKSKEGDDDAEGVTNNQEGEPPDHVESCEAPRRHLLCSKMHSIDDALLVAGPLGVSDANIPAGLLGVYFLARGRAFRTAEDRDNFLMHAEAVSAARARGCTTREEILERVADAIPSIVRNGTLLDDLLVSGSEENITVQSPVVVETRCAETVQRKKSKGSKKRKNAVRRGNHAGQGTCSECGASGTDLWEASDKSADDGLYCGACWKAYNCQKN
Put plainly: co-IP.

The target of test [3] is 4EIP (yeast two-hybrid fusion) (Trypanosoma brucei). Put plainly: two-hybrid.
For test [4], the target named is 4EIP-V5 (Trypanosoma brucei). Nature of the test: co-IP.

For the molecule “4EIP (yeast two-hybrid fusion) (Trypanosoma brucei)”, the binding result in test [1] is “binds”. On to 4EIP-V5 (Trypanosoma brucei), for which the binding entry in test [2] was “binds”. Consider “T. brucei homolog of Dis3L2 (yeast two-hybrid fusion) (Trypanosoma brucei) (enzyme)”, for which the binding entry in test [1] is listed as “no binding”.

B1: TUT3 (yeast two-hybrid fusion) (enzyme, UniProt Q6B9Y8 1-889)
chain: MIFFFKKRYHVFLKAPSIRLMPCSFFFFRSFIKVIFIIRCIFFSSLSGDSCPTQRSRSTLACMFTSVPVAPTVVPGVVYSSGVHEEWKEAEQKLLDGCLIHSEGDGATKQIKEKLTSRNSQSVRCDLCAKMIESRDEEQIQEHFQVHHAALSLWCREILASKDNLLHYGCIPSGHIVSCGNFVLESAATLDMGRKTFDVIERAFSQMSQVISCFVRNLVLFPFGSCVSCGCWDGVSDADFTAIGLQDMKKGKWPPEDEKKVILRLTAALRKAGFFFGELEPLVRTRVPVVRRVQKVRVPLRSHGEHDTYSVVWSNSKEFSSPPRMLVEAAISSTVERKDSDTVTFHFKDSLKAVKFFCNSAMCGPRDMEVSWKTGSQLPEMFSLDFDLSCRAQGVRNSLFLRKYFQQDPFVRTGYLFLKKWSKLYGINNAKNGYLTSYAMSILWVHFLLENGLVKFVRPADVEPIPDLSQQKMSYLPLLRDDGDGGERPSDVLKSPELTMLRGALGGLIPLFFLYYTRIRWDKVVVTLRVPGGGPPVTPDSLGWVEANEVKCGPLRDRVWYRLCIDDPYEDNFNLGRHLSPDKASFVKVQFMRALASIVAGRPQQLLVDEQKFAEETMPAYVTRLSVQGELRNLRPVTVSALRQLLIDSAGADCVAIYEASHNWETLLDMASTLNNKSKEGDDDAEGVTNNQEGEPPDHVESCEAPRRHLLCSKMHSIDDALLVAGPLGVSDANIPAGLLGVYFLARGRAFRTAEDRDNFLMHAEAVSAARARGCTTREEILERVADAIPSIVRNGTLLDDLLVSGSEENITVQSPVVVETRCAETVQRKKSKGSKKRKNAVRRGNHAGQGTCSECGASGTDLWEASDKSADDGLYCGACWKAYNCQKN
As for B1, the binding result in test [3] was “binds”.

B2: TUT3-myc (enzyme, UniProt Q6B9Y8 1-889)
chain: MIFFFKKRYHVFLKAPSIRLMPCSFFFFRSFIKVIFIIRCIFFSSLSGDSCPTQRSRSTLACMFTSVPVAPTVVPGVVYSSGVHEEWKEAEQKLLDGCLIHSEGDGATKQIKEKLTSRNSQSVRCDLCAKMIESRDEEQIQEHFQVHHAALSLWCREILASKDNLLHYGCIPSGHIVSCGNFVLESAATLDMGRKTFDVIERAFSQMSQVISCFVRNLVLFPFGSCVSCGCWDGVSDADFTAIGLQDMKKGKWPPEDEKKVILRLTAALRKAGFFFGELEPLVRTRVPVVRRVQKVRVPLRSHGEHDTYSVVWSNSKEFSSPPRMLVEAAISSTVERKDSDTVTFHFKDSLKAVKFFCNSAMCGPRDMEVSWKTGSQLPEMFSLDFDLSCRAQGVRNSLFLRKYFQQDPFVRTGYLFLKKWSKLYGINNAKNGYLTSYAMSILWVHFLLENGLVKFVRPADVEPIPDLSQQKMSYLPLLRDDGDGGERPSDVLKSPELTMLRGALGGLIPLFFLYYTRIRWDKVVVTLRVPGGGPPVTPDSLGWVEANEVKCGPLRDRVWYRLCIDDPYEDNFNLGRHLSPDKASFVKVQFMRALASIVAGRPQQLLVDEQKFAEETMPAYVTRLSVQGELRNLRPVTVSALRQLLIDSAGADCVAIYEASHNWETLLDMASTLNNKSKEGDDDAEGVTNNQEGEPPDHVESCEAPRRHLLCSKMHSIDDALLVAGPLGVSDANIPAGLLGVYFLARGRAFRTAEDRDNFLMHAEAVSAARARGCTTREEILERVADAIPSIVRNGTLLDDLLVSGSEENITVQSPVVVETRCAETVQRKKSKGSKKRKNAVRRGNHAGQGTCSECGASGTDLWEASDKSADDGLYCGACWKAYNCQKN
In the case of B2, the binding result in test [4] was “binds”.
